Data as given in PubChem BioAssay AID1508597 (Cure First, 2020)
This is an unselected part of the about 2,100 reagents, in one setting of the screen. 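Calls flag viability under 80% in either arm, not effects specific to rucaparib; the reference for percent is not stated.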 A reagent listed more than once was tested more than once; the source does not tell the runs apart. No sequences are given here. Not given: the 100% reference.

Screen: 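Survival screen with siRNA in ovarian cancer cells derived from patients, with or without rucaparib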 (primary screen)
System: human ovarian carcinoma lines grown from tumours: OCI-P5x (papillary serous) and OCI-C5x (clear cell)
Knock-down reagent: siRNA pool against human genes, 1.25 pmol siRNA per well
Duration: 72 h or 96 h, depending on the cell culture
Treatment: rucaparib 20 µM (about IC30) or vehicle, present until read-out
Rucaparib or vehicle: Rucaparib
Cell line: OCI-C5x (clear cell)
Measurement: 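ATP luminescence measured at 72 or 96 h according to the culture, then normalised and expressed as percent viability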
Direction: viability, normalised: higher = more viable cells remaining
Call rule: 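Active when normalised viability falls below 80 percent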
Calls: active = viability under 80%; inactive = viability 80% or more

Gene | technical replicate | viability, normalised (%) | Call
SCMH1 (GeneID 22955) | 1 | 40.5 | active
SCMH1 (GeneID 22955) | 2 | 53.8 | active
SCMH1 (GeneID 22955) | 3 | 42.1 | active
CHKA (GeneID 1119) | 1 | 39.3 | active
CHKA (GeneID 1119) | 2 | 48.7 | active
CHKA (GeneID 1119) | 3 | 44.6 | active
CACNA1G (GeneID 8913) | 1 | 50.8 | active
CACNA1G (GeneID 8913) | 2 | 53.8 | active
CACNA1G (GeneID 8913) | 3 | 62.2 | active
CHTOP (GeneID 26097) | 1 | 39.4 | active
CHTOP (GeneID 26097) | 2 | 40.3 | active
CHTOP (GeneID 26097) | 3 | 35.1 | active
TRPM6 (GeneID 140803) | 1 | 64.1 | active
TRPM6 (GeneID 140803) | 2 | 39.1 | active
TRPM6 (GeneID 140803) | 3 | 44 | active
POLR1B (GeneID 84172) | 1 | 49.2 | active
POLR1B (GeneID 84172) | 2 | 54.2 | active
POLR1B (GeneID 84172) | 3 | 48 | active
FGFR2 (GeneID 2263) | 1 | 35.6 | active
FGFR2 (GeneID 2263) | 1 | 48.5 | active
FGFR2 (GeneID 2263) | 2 | 35.3 | active
FGFR2 (GeneID 2263) | 2 | 27.9 | active
FGFR2 (GeneID 2263) | 3 | 49.5 | active
FGFR2 (GeneID 2263) | 3 | 35.6 | active
SDC4 (GeneID 6385) | 1 | 57.5 | active
SDC4 (GeneID 6385) | 2 | 69.1 | active
SDC4 (GeneID 6385) | 3 | 57.5 | active
LTK (GeneID 4058) | 1 | 62.6 | active
LTK (GeneID 4058) | 2 | 56.2 | active
LTK (GeneID 4058) | 3 | 45.4 | active
APC (GeneID 324) | 1 | 52.6 | active
APC (GeneID 324) | 1 | 52 | active
APC (GeneID 324) | 2 | 38.5 | active
APC (GeneID 324) | 2 | 56.7 | active
APC (GeneID 324) | 3 | 46.4 | active
APC (GeneID 324) | 3 | 37.7 | active

Continued (6 carried over from the part before).
Gene | technical replicate | viability, normalised (%) | Call
APC (GeneID 324) | 1 | 52.6 | active
APC (GeneID 324) | 1 | 52 | active
APC (GeneID 324) | 2 | 38.5 | active
APC (GeneID 324) | 2 | 56.7 | active
APC (GeneID 324) | 3 | 46.4 | active
APC (GeneID 324) | 3 | 37.7 | active
PIK3R3 (GeneID 8503) | 1 | 63.1 | active
PIK3R3 (GeneID 8503) | 2 | 55.3 | active
PIK3R3 (GeneID 8503) | 3 | 49.7 | active
GSK3A (GeneID 2931) | 1 | 46.5 | active
GSK3A (GeneID 2931) | 1 | 41.4 | active
GSK3A (GeneID 2931) | 2 | 33.1 | active
GSK3A (GeneID 2931) | 2 | 37.2 | active
GSK3A (GeneID 2931) | 3 | 51.4 | active
GSK3A (GeneID 2931) | 3 | 40.5 | active
RCOR1 (GeneID 23186) | 1 | 44.8 | active
RCOR1 (GeneID 23186) | 2 | 31.3 | active
RCOR1 (GeneID 23186) | 3 | 38.8 | active
FOXP1 (GeneID 27086) | 1 | 33.3 | active
FOXP1 (GeneID 27086) | 2 | 30.1 | active
FOXP1 (GeneID 27086) | 3 | 31.4 | active
PCSK9 (GeneID 255738) | 1 | 29.4 | active
PCSK9 (GeneID 255738) | 2 | 32.5 | active
PCSK9 (GeneID 255738) | 3 | 39.9 | active
PARP1 (GeneID 142) | 1 | 50.4 | active
PARP1 (GeneID 142) | 1 | 57.3 | active
PARP1 (GeneID 142) | 2 | 61.4 | active
PARP1 (GeneID 142) | 2 | 49.6 | active
PARP1 (GeneID 142) | 3 | 54.6 | active
PARP1 (GeneID 142) | 3 | 61.1 | active
GUCY2F (GeneID 2986) | 1 | 75.9 | active
GUCY2F (GeneID 2986) | 2 | 77.9 | active
GUCY2F (GeneID 2986) | 3 | 80.7 | inactive
CASK (GeneID 8573) | 1 | 59.9 | active
CASK (GeneID 8573) | 2 | 74.6 | active
CASK (GeneID 8573) | 3 | 80.9 | inactive
DDX4 (GeneID 54514) | 1 | 64.7 | active
DDX4 (GeneID 54514) | 2 | 50.6 | active
DDX4 (GeneID 54514) | 3 | 44.5 | active
INO80B (GeneID 83444) | 1 | 62.2 | active
INO80B (GeneID 83444) | 2 | 53.6 | active
INO80B (GeneID 83444) | 3 | 62.4 | active
BDP1 (GeneID 55814) | 1 | 44.1 | active
BDP1 (GeneID 55814) | 2 | 59.8 | active
BDP1 (GeneID 55814) | 3 | 46.1 | active
